This is a selection; strong and weak results do not stand in their true shares.
Compound: COC(=O)C#Cc1ccccc1 [methyl 3-phenylpropiolate]
Experiment: log2 ratio of iodoacetamide-alkyne labeling of the cysteine site, DMSO over compound (competition); higher = stronger covalent engagement of the cysteine by the compound, active = 1 or more
Conditions: 500 µM; treatment time 1 h; system: HEK293T cell lysate
Outline: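 Three replicates, each with duplicate channels, were prepared from HEK293T lysate (2 mg/mL) treated with vehicle or electrophile at 500 µM for 1 h at ambient temperature. Iodoacetamide alkyne was then applied for 1 h, and samples were clicked to sCIP-TMT reagents, pooled, trypsin-digested overnight at 37 °C, enriched on streptavidin, acid-eluted and analysed on Orbitrap Eclipse LC-MS/MS with FAIMS, with FragPipe quantification. The log2 competition ratio per cysteine is the mean control-channel divided by the mean compound-channel reporter intensity. Cysteines quantified in only one replicate were left out.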

Protein sequences, listed by entry. Tags and fused reporters are not part of them. Lines headed by an entry give the natural chain unless they say otherwise; changes in a name come on top.
UniProt O75935, whole entry, looked up: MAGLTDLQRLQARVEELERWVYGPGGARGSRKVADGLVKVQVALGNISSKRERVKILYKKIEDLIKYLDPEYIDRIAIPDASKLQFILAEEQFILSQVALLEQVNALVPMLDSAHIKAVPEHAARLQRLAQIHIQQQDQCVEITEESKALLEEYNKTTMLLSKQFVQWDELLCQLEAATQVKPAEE
UniProt O75348, whole entry, looked up: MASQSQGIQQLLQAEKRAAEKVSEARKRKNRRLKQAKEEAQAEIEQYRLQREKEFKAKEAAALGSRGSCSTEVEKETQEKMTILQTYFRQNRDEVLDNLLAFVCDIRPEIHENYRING
UniProt O60232: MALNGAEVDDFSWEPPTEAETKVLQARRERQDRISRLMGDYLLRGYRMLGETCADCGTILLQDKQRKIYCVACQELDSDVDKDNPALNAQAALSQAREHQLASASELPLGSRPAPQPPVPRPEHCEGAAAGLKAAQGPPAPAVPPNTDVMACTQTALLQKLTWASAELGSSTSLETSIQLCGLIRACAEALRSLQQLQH
UniProt O75818: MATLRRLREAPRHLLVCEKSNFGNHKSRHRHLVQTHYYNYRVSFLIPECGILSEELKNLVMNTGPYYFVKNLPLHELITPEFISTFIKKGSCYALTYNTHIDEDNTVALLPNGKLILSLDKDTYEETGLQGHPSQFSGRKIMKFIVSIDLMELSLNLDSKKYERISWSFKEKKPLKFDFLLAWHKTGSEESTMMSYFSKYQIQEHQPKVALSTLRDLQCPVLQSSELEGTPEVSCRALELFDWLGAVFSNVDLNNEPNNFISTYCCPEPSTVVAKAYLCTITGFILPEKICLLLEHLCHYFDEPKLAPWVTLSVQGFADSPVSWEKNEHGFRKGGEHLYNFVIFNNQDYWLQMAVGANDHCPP
UniProt O43776: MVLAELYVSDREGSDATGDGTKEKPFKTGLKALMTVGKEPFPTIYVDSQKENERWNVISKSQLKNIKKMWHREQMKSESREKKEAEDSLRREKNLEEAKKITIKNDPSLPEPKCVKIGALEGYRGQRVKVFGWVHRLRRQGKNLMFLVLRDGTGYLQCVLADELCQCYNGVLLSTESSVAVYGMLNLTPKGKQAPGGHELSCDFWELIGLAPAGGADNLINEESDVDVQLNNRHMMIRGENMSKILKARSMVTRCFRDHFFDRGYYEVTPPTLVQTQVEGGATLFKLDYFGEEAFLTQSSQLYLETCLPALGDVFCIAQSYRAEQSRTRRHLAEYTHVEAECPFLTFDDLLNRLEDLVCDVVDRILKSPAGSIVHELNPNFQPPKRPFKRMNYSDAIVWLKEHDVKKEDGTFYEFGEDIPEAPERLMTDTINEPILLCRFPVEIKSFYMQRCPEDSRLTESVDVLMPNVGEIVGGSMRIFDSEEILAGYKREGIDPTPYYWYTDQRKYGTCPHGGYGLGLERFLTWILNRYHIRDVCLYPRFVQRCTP
UniProt O75940: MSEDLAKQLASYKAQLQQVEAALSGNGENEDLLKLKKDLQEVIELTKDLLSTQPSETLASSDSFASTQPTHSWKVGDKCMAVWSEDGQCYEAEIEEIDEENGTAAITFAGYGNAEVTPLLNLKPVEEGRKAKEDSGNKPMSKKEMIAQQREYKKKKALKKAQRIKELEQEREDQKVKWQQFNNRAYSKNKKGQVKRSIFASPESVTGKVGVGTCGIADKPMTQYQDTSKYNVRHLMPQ
UniProt O60216: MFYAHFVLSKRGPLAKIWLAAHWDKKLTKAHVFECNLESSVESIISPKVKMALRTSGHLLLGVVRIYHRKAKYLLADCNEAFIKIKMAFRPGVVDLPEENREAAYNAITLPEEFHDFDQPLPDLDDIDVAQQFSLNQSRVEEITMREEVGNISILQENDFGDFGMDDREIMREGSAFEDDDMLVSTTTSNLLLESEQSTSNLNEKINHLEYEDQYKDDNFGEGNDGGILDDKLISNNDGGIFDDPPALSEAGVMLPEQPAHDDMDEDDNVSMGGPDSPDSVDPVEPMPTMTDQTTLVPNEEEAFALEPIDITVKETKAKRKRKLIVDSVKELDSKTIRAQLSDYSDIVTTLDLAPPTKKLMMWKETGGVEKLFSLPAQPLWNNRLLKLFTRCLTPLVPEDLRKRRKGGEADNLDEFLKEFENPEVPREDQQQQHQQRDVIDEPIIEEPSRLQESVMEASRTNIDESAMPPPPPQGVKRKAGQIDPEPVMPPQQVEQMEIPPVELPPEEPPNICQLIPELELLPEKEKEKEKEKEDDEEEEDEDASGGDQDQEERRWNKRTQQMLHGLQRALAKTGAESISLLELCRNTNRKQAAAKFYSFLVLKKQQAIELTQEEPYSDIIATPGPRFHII
UniProt O75534: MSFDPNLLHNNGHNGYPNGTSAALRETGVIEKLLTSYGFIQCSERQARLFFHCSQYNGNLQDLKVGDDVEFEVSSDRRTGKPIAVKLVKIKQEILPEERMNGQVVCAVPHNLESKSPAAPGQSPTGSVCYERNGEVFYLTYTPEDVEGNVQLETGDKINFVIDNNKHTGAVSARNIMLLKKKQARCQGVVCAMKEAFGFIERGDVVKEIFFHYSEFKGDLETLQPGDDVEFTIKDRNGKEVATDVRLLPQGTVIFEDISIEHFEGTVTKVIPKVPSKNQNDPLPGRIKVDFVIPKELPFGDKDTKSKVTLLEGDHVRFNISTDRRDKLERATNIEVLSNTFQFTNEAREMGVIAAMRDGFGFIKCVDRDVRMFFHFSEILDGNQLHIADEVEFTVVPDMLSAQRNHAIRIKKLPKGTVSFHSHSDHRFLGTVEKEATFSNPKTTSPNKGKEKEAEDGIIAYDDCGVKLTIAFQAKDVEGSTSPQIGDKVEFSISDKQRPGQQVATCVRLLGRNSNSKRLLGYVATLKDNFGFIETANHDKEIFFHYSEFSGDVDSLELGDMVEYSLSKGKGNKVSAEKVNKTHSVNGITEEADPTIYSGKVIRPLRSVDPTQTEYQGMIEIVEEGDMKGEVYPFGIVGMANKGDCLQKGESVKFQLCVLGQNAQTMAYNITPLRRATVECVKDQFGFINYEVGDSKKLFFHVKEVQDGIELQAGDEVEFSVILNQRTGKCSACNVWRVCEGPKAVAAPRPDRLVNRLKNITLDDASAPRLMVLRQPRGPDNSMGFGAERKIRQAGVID
UniProt O60447: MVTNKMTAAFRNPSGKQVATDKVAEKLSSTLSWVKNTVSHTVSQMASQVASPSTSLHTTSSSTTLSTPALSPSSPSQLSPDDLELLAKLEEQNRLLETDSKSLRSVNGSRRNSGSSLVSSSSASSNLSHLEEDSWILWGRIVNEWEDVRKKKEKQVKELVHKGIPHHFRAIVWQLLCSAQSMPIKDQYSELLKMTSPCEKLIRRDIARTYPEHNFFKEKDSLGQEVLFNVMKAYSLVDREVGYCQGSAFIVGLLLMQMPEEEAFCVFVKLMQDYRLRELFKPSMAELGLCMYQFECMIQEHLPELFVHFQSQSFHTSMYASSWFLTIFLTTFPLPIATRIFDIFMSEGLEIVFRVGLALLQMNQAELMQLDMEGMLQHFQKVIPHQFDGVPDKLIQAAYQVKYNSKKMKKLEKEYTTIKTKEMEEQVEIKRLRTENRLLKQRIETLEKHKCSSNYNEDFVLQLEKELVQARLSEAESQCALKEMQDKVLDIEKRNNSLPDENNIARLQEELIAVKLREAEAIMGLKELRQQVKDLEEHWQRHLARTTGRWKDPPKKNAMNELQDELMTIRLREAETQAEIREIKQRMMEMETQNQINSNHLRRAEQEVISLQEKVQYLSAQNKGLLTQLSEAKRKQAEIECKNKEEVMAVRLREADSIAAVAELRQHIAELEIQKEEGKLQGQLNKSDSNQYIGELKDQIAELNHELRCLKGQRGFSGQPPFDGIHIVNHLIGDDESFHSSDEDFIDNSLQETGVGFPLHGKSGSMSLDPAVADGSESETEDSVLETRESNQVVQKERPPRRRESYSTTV
UniProt O75347: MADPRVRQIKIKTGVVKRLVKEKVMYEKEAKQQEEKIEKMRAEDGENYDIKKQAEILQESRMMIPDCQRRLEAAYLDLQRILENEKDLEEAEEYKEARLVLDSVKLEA
UniProt O43432, whole entry, looked up: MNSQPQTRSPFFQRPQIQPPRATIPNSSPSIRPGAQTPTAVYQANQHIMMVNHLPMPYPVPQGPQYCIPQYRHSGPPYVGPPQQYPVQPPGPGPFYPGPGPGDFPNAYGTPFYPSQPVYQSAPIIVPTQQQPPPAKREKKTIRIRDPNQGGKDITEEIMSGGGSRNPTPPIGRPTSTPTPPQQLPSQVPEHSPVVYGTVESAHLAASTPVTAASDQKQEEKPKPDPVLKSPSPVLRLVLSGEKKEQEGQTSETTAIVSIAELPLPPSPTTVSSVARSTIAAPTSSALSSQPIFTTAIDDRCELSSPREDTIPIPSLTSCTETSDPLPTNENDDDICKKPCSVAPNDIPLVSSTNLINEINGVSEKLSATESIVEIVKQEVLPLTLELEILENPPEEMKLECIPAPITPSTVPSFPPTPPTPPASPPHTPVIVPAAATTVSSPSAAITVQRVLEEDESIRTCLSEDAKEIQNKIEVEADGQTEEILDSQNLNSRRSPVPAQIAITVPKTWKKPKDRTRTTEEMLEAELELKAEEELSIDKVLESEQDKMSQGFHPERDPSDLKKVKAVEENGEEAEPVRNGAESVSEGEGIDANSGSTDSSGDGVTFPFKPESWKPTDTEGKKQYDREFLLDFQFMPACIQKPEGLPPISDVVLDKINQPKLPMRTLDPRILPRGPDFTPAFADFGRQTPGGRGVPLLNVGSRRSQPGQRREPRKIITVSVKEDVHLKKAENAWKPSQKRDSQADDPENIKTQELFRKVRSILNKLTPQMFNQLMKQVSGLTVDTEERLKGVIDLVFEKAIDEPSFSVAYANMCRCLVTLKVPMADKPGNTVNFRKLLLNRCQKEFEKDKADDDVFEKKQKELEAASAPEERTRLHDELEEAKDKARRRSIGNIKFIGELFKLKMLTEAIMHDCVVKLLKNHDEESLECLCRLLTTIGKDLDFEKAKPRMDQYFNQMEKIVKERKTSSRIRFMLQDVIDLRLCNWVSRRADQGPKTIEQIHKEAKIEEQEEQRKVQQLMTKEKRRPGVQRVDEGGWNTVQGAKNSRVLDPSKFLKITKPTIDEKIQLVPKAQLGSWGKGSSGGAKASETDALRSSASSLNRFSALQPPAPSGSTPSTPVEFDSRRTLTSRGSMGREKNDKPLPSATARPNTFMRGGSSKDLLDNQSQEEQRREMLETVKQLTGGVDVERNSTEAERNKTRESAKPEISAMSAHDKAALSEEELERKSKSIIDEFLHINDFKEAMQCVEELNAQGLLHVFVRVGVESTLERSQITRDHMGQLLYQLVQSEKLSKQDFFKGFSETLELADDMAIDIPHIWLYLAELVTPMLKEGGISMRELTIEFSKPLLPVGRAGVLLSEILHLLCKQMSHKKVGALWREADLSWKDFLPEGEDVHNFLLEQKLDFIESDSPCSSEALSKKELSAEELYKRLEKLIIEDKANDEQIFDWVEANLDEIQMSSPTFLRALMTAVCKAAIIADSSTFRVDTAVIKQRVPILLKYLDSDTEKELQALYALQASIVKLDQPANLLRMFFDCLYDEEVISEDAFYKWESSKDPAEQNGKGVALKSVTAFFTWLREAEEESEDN
UniProt O75170: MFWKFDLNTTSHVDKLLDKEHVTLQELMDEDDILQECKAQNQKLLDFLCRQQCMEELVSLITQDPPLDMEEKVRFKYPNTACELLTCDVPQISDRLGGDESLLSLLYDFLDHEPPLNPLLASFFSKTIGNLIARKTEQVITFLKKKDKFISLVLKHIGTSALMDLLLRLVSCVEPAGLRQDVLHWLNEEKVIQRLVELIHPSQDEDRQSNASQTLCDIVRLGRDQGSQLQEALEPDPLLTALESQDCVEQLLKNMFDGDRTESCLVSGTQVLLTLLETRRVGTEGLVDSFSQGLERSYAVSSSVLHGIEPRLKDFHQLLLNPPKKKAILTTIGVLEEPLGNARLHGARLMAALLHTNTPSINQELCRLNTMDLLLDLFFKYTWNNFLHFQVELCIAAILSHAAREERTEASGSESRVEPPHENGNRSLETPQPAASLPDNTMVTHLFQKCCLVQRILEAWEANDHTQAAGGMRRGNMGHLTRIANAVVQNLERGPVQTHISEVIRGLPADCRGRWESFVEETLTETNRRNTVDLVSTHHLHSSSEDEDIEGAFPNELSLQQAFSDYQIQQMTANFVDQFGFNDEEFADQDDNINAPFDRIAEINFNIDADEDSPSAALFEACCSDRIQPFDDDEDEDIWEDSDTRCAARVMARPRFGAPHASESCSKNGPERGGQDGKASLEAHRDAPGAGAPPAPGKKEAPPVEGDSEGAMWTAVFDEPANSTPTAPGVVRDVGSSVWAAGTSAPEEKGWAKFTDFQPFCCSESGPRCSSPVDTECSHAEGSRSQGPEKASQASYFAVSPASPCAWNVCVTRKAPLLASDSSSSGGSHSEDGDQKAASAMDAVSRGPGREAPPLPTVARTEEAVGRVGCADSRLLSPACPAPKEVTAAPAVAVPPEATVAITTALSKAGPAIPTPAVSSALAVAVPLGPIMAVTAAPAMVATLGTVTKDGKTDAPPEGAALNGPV

Target | log2 ratio of iodoacetamide-alkyne labeling
KIF1C C198 (UniProt O43896) | inactive: 0.155
ROCK2 C607 (UniProt O75116) | inactive: 0.0495
FLNB C2248 (UniProt O75369) | inactive: -0.193
DCTN3 C140 (UniProt O75935) | inactive: 0.415
ATP6V1G1 C104 (UniProt O75348) | inactive: 0.03
HTATSF1 C295 (UniProt O43719) | inactive: -0.0476
UniProt O60232_C125 | inactive: 0.457
RPP40 C49 (UniProt O75818) | inactive: 0.0974
TBC1D4 C266 (UniProt O60343) | inactive: 0.671
UniProt O60610_C1227 | inactive: 0.284
ZFC3H1 C220 (UniProt O60293) | inactive: 0.0402
UGDH C241 (UniProt O60701) | inactive: -0.0621
UniProt O43776_C452 | inactive: 0.223
ZC3H11A C588 (UniProt O75152) | inactive: 0.177
SMNDC1 C214 (UniProt O75940) | inactive: 0.406
WDHD1 C304 (UniProt O75717) | inactive: -0.132
RIPK2 C414 (UniProt O43353) | active: 1.35
PAPSS1 C212 (UniProt O43252) | inactive: -0.125
RAD21 C392 (UniProt O60216) | inactive: -0.047

Some of the entries above, reformatted.
Target,log2 ratio of iodoacetamide-alkyne labeling
RPP40 C49 (UniProt O75818),inactive: 0.0974
UniProt O43776_C452,inactive: 0.223

(further entries)

Target | log2 ratio of iodoacetamide-alkyne labeling
CSDE1 C53 (UniProt O75534) | inactive: 0.329
UniProt O75153_C184 | inactive: 0.0459
EVI5 C451 (UniProt O60447) | inactive: 0.245
OPA1 C551 (UniProt O60313) | inactive: -0.018
FLNB C1617 (UniProt O75369) | inactive: 0.17
MGRN1 C428 (UniProt O60291) | inactive: 0.472
UniProt O60610_C314 | inactive: -0.564
CCDC22 C369 (UniProt O60826) | inactive: 0.818
TBC1D4 C74 (UniProt O60343) | inactive: 0.832
TBCA C67 (UniProt O75347) | inactive: 0.0402
CS C211 (UniProt O75390) | inactive: 0.125
UniProt O60664_C60 | inactive: 0.479
PTCD1 C183 (UniProt O75127) | inactive: 0.469
OPA1 C375 (UniProt O60313) | inactive: 0.235
UniProt O43432_C1411 | inactive: 0.0789
UniProt O75153_C732 | inactive: 0.222
RECQL5 C664 (UniProt O94762) | active: 1.47
UniProt O75170_C762 | inactive: 0.241

Source: the supplement of paper PMC11006884
